In the supplement of paper PMC12024529:
Where a name gives a salt, the structure may show the parent alone. Some of the results follow. Part of the spread comes from offsets between plates or batches.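 HEK293 lines stably express B-domain-deleted factor VIII fused to Gaussia luciferase, wild type or a misfolding-prone missense mutant. Scores equal triplicate-well mean luminescence minus DMSO mean, divided by DMSO standard deviation; scores of 2 or higher are hits. Low scores may indicate reduced secretion or worse cell viability.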

Test system: HEK293 WT BDD-FVIII-Gluc
Test: secreted FVIII-Gluc luciferase Z-score vs DMSO control; higher = more FVIII-Gluc secretion
Conditions: 5 µM; 24 h

Secreted FVIII-Gluc luciferase Z-score, inactive:
CC[C@@H]1/C=C(\C)C[C@H](C)C[C@H](OC)[C@H]2O[C@@](O)(C(=O)C(=O)N3CCCC[C@H]3C(=O)O[C@H](/C(C)=C/[C@@H]3CC[C@H](Cl)[C@H](OC)C3)[C@H](C)[C@@H](O)CC1=O)[C@H](C)C[C@@H]2OC [Pimecrolimus] -2.31
N=C(N)c1ccc(N=NNc2ccc(C(=N)N)cc2)cc1 [Diminazene Aceturate] 0.457
CC(=O)SCC(Cc1ccccc1)C(=O)NCC(=O)OCc1ccccc1 (centres undefined) [Racecadotril (Acetorphan)] 1.3
CS(=O)(=O)Nc1ccc([N+](=O)[O-])cc1Oc1ccccc1 [Nimesulide] -0.296
Cc1c(Cl)cccc1Nc1ccccc1C(=O)O [Tolfenamic acid] -0.609
CC(=O)CCCCn1c(=O)c2c(ncn2C)n(C)c1=O [Pentoxifylline] -0.751
CCOC(=O)CCC(=O)O[C@H]1[C@H](O[C@@H]2[C@@H](C)[C@H](O[C@H]3C[C@@](C)(OC)[C@@H](O)[C@H](C)O3)[C@@H](C)C(=O)O[C@H](CC)[C@@](C)(O)[C@H](O)[C@@H](C)C(=O)[C@H](C)C[C@@]2(C)O)O[C@H](C)C[C@@H]1N(C)C [Erythromycin Ethylsuccinate] -1.21
O=C1CCc2ccc(OCCCCN3CCN(c4cccc(Cl)c4Cl)CC3)cc2N1 [Aripiprazole (Abilify)] -1.31
C=C1CC[C@H](O)C/C1=C/C=C1\CCC[C@]2(C)[C@@H]([C@H](C)/C=C/[C@H](C)C(C)C)CC[C@@H]12 [Vitamin D2] 0.042
CC[C@H](C)C(=O)O[C@H]1C[C@H](O)C=C2C=C[C@H](C)[C@H](CC[C@@H](O)C[C@@H](O)CC(=O)O)[C@H]21 [Pravastatin sodium] -0.883
CCOC(=O)C1=C(COCCN)NC(C)=C(C(=O)OC)C1c1ccccc1Cl (centres undefined) [Amlodipine (Norvasc)] 0.199
C[C@]12CC[C@@H]3c4ccc(O)cc4CC[C@H]3[C@@H]1CC[C@@H]2OC(=O)CCC1CCCC1 [Estradiol Cypionate] 0.19
COc1cc([C@@H]2c3cc4c(cc3[C@@H](O[C@@H]3O[C@@H]5CO[C@@H](c6cccs6)O[C@H]5[C@H](O)[C@H]3O)[C@H]3COC(=O)[C@H]23)OCO4)cc(OC)c1O [Teniposide (Vumon)] -10.4
CC(C(=O)O)c1cccc(Oc2ccccc2)c1 (centres undefined) [Fenoprofen calcium hydrate] -2.17
O=C1O[C@H]([C@@H](O)CO)C([O-])=C1O.[Na+] [Sodium ascorbate] -0.522
COc1cccc2c1C(=O)c1c(O)c3c(c(O)c1C2=O)C[C@@](O)(C(C)=O)C[C@@H]3O[C@H]1C[C@H](N)[C@H](O)[C@H](C)O1 [Daunorubicin HCl (Daunomycin HCl)] -10.8
COC(=O)Nc1nc2cc(Sc3ccccc3)ccc2[nH]1 [Fenbendazole] -4.34
OC[C@@H](O)[C@@H](O)[C@H](O)[C@@H](O)CO [Sorbitol (Glucitol)] 0.401
CCCc1nn(C)c2c(=O)[nH]c(-c3cc(S(=O)(=O)N4CCN(C)CC4)ccc3OCC)nc12 [Sildenafil citrate] -3.04
CCCNCC(O)COc1ccccc1C(=O)CCc1ccccc1 (centres undefined) [Propafenone (Rytmonorm)] -1.57
C=C[C@]1(C)C[C@@H](OC(=O)CS[C@@H]2C[C@H]3CC[C@@H](C2)N3C)[C@]2(C)[C@H](C)CC[C@]3(CCC(=O)[C@H]32)[C@@H](C)[C@@H]1O [Retapamulin] -0.745
C[N+](C)(C)CCOC(N)=O [Carbachol] -3.98
CN(C)CCC(c1ccccc1)c1ccccn1 (centres undefined) [Pheniramine Maleate] 0.0201
Cc1ccc(Nc2nccc(N(C)c3ccc4c(C)n(C)nc4c3)n2)cc1S(N)(=O)=O [Pazopanib] -7.01
CN(C)CCOC(C)(c1ccccc1)c1ccccn1 (centres undefined) [Doxylamine Succinate] -0.673
CCOC(=O)C1=C(C)NC(C)=C(C(=O)OCC)C1c1ccccc1/C=C/C(=O)OC(C)(C)C [Lacidipine (Lacipil, Motens)] -1.46
CC1(C)[C@@H](O[C@H]2O[C@H](C(=O)O)[C@@H](O)[C@H](O)[C@H]2O[C@@H]2O[C@H](C(=O)O)[C@@H](O)[C@H](O)[C@H]2O)CC[C@]2(C)[C@H]3C(=O)C=C4[C@@H]5C[C@@](C)(C(=O)O)CC[C@]5(C)CC[C@@]4(C)[C@]3(C)CC[C@@H]12 [Ammonium Glycyrrhizinate] 0.924
CC1=C(/C=C/C(C)=C/C=C/C(C)=C/C=C/C=C(C)/C=C/C=C(C)/C=C/C2=C(C)CCCC2(C)C)C(C)(C)CCC1 [Beta Carotene] -1.69
CC(C)(Sc1cc(C(C)(C)C)c(O)c(C(C)(C)C)c1)Sc1cc(C(C)(C)C)c(O)c(C(C)(C)C)c1 [Probucol] -0.707
COc1c(C)c2c(c(O)c1C/C=C(\C)CCC(=O)OCCN1CCOCC1)C(=O)OC2 [Mycophenolate mofetil (CellCept)] -12
C[C@]12CC[C@@H]3c4ccc(O)cc4CC[C@H]3[C@@H]1CCC2=O [Estrone] -0.532
CCC1=C(C)CN(C(=O)NCCc2ccc(S(=O)(=O)NC(=O)N[C@H]3CC[C@H](C)CC3)cc2)C1=O [Glimepiride] -4.97
COc1ccc2[nH]c([S@@+]([O-])Cc3ncc(C)c(OC)c3C)nc2c1 [Esomeprazole sodium (Nexium)] 0.355
Cc1ccc(S(=O)(=O)NC(=O)NN2CC3CCCC3C2)cc1 (centres undefined) [Gliclazide (Diamicron)] -0.8
COc1ccc2c(c1)c(CC(=O)O)c(C)n2C(=O)c1ccc(Cl)cc1 [Indomethacin (Indocid, Indocin)] 1.86
Cc1c(-c2ccc(O)cc2)n(Cc2ccc(OCCN3CCCCCC3)cc2)c2ccc(O)cc12 [Bazedoxifene HCl] -0.199

Pulled by structure from the entries so far, two records:
Secreted FVIII-Gluc luciferase Z-score, inactive:
CN(C)CCOC(C)(c1ccccc1)c1ccccn1 (centres undefined) [Doxylamine Succinate] -0.673
CC(=O)SCC(Cc1ccccc1)C(=O)NCC(=O)OCc1ccccc1 (centres undefined) [Racecadotril (Acetorphan)] 1.3

Next part.

Secreted FVIII-Gluc luciferase Z-score, active:
CC(CN(C)C)CN1c2ccccc2CCc2ccccc21 (centres undefined) [Trimipramine Maleate] 4.81
CC1(C)O[C@@H]2C[C@H]3[C@@H]4CCC5=CC(=O)C=C[C@]5(C)[C@@]4(F)[C@@H](O)C[C@]3(C)[C@]2(C(=O)CO)O1 [Triamcinolone Acetonide] 9.93
CC1(C)O[C@@H]2C[C@H]3[C@@H]4CCC5=CC(=O)C=C[C@]5(C)[C@H]4[C@@H](O)C[C@]3(C)[C@]2(C(=O)CO)O1 [Desonide] 7.8
